Reference: PubChem BioAssay AID540276 (National Center for Advancing Translational Sciences (NCATS), 2011)
The whole screen tested about 300,000 compounds, of which about 5,400 (1.8%) were called active. This list was built around the results that the source calls inconclusive (neither active nor inactive); the mix of calls is not that of the screen. Calls come from the whole dose curve; tested in HEK293 cells. Where the call is inconclusive, the potency comes from a doubtful curve fit.

Test: qHTS for inhibitors of binding or entry into cells for Marburg Virus
Conditions: Marburg virus pseudotyped entry inhibition, cell reporter; activity change, negative = inhibition: at 37.8 µM (top of the series) unless noted
% is set by controls: 0 for no effect and ±100 for the full control effect; potency is the fitted concentration of half-maximal effect.

| Structure (SMILES) | Potency | activity change, negative = inhibition |
| --- | --- | --- |
| Cc1ccc(S(=O)(=O)N(Cc2nc(-c3ccc(Cl)cc3)no2)C2CCCCC2)cc1 | inconclusive: 10 µM [inhibitor, partial curve, poor fit] | – |
| Cc1ccc(C(=O)Nc2cccc(C(=O)N3CCOCC3)c2)cc1 | inactive | – |
| O=C(/C=C(\O)c1ccc(Cl)cc1)C(=O)NNC(=O)C(O)(c1ccccc1)c1ccccc1 | inconclusive: 35.5 µM [inhibitor, single point] | – |
| Cc1cccn2c(CN(C)CC3Cc4ccccc4O3)c(C(=O)N3CCCCC3)nc12 (configuration not stated) | inconclusive: 3.55 µM [activator, single point] | – |
| COC(=O)c1nc(N)sc1-c1ccc(Cl)cc1 | inconclusive: 2.24 µM [inhibitor, full curve] | – |
| COC(=O)c1ccc(NC(=O)CCc2nnc3ccc(N4CCC5(CC4)OCCO5)nn23)cc1 | inactive | – |
| O=C(N/N=C/c1sc2ccccc2c1O)c1ccccc1 | inconclusive: 2.51 µM [inhibitor, full curve] | – |
| CCOC(=O)c1cc(-c2ccccc2)nn1CCC#N | inactive | – |
| CCNC(=O)c1ccc(OCC(=O)Nc2ccc(F)cc2)c(OC)c1 | inconclusive: 1.78 µM [inhibitor, single point] | – |
| Cc1ccc(CNC(=O)[C@H](C)[C@H]2C[C@]2(C)[C@H](NC(=O)OCc2ccccc2)c2ccccc2)o1 | active: 10.3 µM | – |
| Cc1ccc(-n2ccnc(SCC(=O)NC3CCCC3)c2=O)cc1Cl | inactive | – |
| CCCCC1(C)NC(=S)N2N1C(=S)NC2(C)CCCC (configuration not stated) | inactive | – |
| COc1cc2c(cc1OC)C(C)N(C(=O)c1cc3c(s1)-c1c(C)cccc1OC3)CC2 (configuration not stated) | inactive | – |
| Cc1cc(C)nc(NC(=S)Nc2ccc(F)cc2F)c1 | inconclusive: 0.562 µM [activator, full curve, poor fit] | – |
| CCN1CCN(CCCN(Cc2ccco2)C(=S)Nc2ccccc2Cl)CC1 | inactive | – |
| CCOC(=O)C1(CCOc2ccccc2)CCN(Cc2ccc(C)s2)CC1 | inconclusive: 25.1 µM [inhibitor, single point] | – |
| CC1(C)CC(=O)C2=C(C1)NC(Nc1nc3ccccc3o1)=NC2c1ccccn1 (configuration not stated) | – | inconclusive: 2.15% [activator] [at 46.1 µM] |
| CCOC(=O)N1CCc2c(sc3c2c(=O)n(Cc2ccccc2)c(=O)n3CC(=O)Nc2ccccc2F)C1 | inactive | – |
| c1ccc(N/N=C(\Cc2ncc[nH]2)c2ccccc2)cc1 | inactive | – |
| Cc1ccccc1NC(=O)c1ccc(C)c(S(=O)(=O)NCc2cccnc2)c1 | inconclusive: 5.01 µM [inhibitor, single point] | – |
| O=C(CCSc1ccccc1)N1CCN(C(=O)c2ccco2)CC1 | inconclusive: 16.4 µM [activator, partial curve, poor fit] | – |
| CCOC(=O)C(NC(=O)c1ccccc1Cl)(Nc1sc2c(c1C(N)=O)CCC2)C(F)(F)F (configuration not stated) | inactive | – |
| O=C1CC(N2CCOCC2)C(=O)N1c1ccccc1Cl (configuration not stated) | inactive | – |
| COc1ccc(S(=O)(=O)N(CC(=O)O)c2ccccc2)cc1 | inactive | – |

Complete entries as entered above. Order of values: Potency | activity change, negative = inhibition
Cc1ccc(S(=O)(=O)N(Cc2nc(-c3ccc(Cl)cc3)no2)C2CCCCC2)cc1 as listed: inconclusive: 10 µM [inhibitor, partial curve, poor fit] | –
O=C(N/N=C/c1sc2ccccc2c1O)c1ccccc1 as listed: inconclusive: 2.51 µM [inhibitor, full curve] | –

Remaining list, next part:

| Structure (SMILES) | Potency | activity change, negative = inhibition |
| --- | --- | --- |
| O=S(=O)(Nc1nc2ccccc2nc1-[n+]1cccc(N=C([O-])c2ccc(Cl)cc2)c1)c1ccccc1 | inconclusive: 35.5 µM [inhibitor, partial curve, poor fit] | – |
| O=C(Cn1cnc2cc([N+](=O)[O-])ccc2c1=O)N(Cc1ccccc1)C1CCS(=O)(=O)C1 (configuration not stated) | inactive | – |
| O=C(Cn1cnc2ccccc2c1=O)Nc1ccc(S(=O)(=O)N2CCOCC2)cc1 | inactive | – |
| O=C(Nc1cccc(O)c1)c1cnn2cccnc12 | inactive | – |
| COc1ccc(Br)cc1CN1CCCC(C(=O)N2CCCCCC2)C1 (configuration not stated) | inconclusive: 11.2 µM [inhibitor, single point] | – |
| O=C(CSc1nc2ccccc2s1)Nc1nccs1 | inactive | – |
| CCOC(=O)c1cc(-c2ccccc2)nn1Cc1ccccc1 | inconclusive: 3.55 µM [activator, single point] | – |
| COC(=O)C1=C(CSc2nc3c(cc2C#N)CN(C)CC3)OC(N)=C(C#N)C1c1ccccc1F (configuration not stated) | inconclusive: 0.92 µM [activator, single point] | – |
| N#Cc1ccc(COc2ccc(CCO)cc2-n2nc3ccccc3n2)cc1 | inactive | – |
| COc1ccc(C(=O)NNC(=O)c2cc3cc(OC)ccc3oc2=O)cc1 | inactive | – |
| Cc1cccc(Cn2c(=O)n(CCc3ccccc3)c(=O)c3sc4ccccc4c32)c1 | inactive | – |
| COc1ccc(NC(=O)COC(=O)c2cc(S(=O)(=O)N3CCCC3)ccc2O)cc1 | inactive | – |
| O=C(NNC(=O)c1cccs1)c1ccc(Br)cc1 | inconclusive: 28.2 µM [activator, single point] | – |
| Cc1cccc(NC(=O)COC(=O)c2nn(C)c(=O)c3ccccc23)c1C | inactive | – |
| CCOc1ccc2c(c1)nc(SCC(=O)c1ccc(Br)s1)n2C | inconclusive: 18.3 µM [inhibitor, single point] | – |
| Cc1ccc(NC(=O)C(Nc2cccc(C)c2)c2ccccc2)cc1 (configuration not stated) | inconclusive: 4.61 µM [inhibitor, full curve, poor fit] | – |
| Cc1cc(NC(=O)/C(C#N)=C/c2ccc(-c3cccc(C(F)(F)F)c3)o2)n(-c2ccccc2)n1 | inconclusive: 1.26 µM [inhibitor, single point] | – |
| CC1(C)CC(=O)C(C=NCCN2CCN(C(=O)C34CC5CC(CC(C5)C3)C4)CC2)=C(O)C1 | inconclusive: 7.94 µM [inhibitor, partial curve] | – |
| COc1ccc(CNC(=O)c2cc3sccc3n2C)cc1 | inconclusive: 35.5 µM [inhibitor, single point] | – |
| COCCNc1c2c(nc3ccccc13)CCC2 | inconclusive: 1.12 µM [inhibitor, full curve, poor fit] | – |
| O=C(CCc1ccccc1)Nc1ccnn1C1CCN(Cc2ncc[nH]2)CC1 | inconclusive: 22.4 µM [activator, single point] | – |
| COc1cccc(NC(=O)c2sc3nc(C)c(C(=O)Nc4ccc(C)cc4C)c(-c4ccc(Br)cc4)c3c2N)c1 | inconclusive: 1.78 µM [inhibitor, partial curve, poor fit] | – |
| CC(=O)NCCNC(=O)C1CCCCN1S(=O)(=O)c1ccccc1 (configuration not stated) | inactive | – |

| Structure (SMILES) | Potency | activity change, negative = inhibition |
| --- | --- | --- |
| Brc1ccccc1-c1nnc(COc2ncnc3c2cnn3-c2ccccc2)o1 | inconclusive: 35.5 µM [inhibitor, single point] | – |
| NC(=O)Cc1ccc2sc(-c3ccccc3)nc2c1 | inconclusive: 9.2 µM [inhibitor, partial curve, poor fit] | – |
| CCc1ccc(C(=O)COC(=O)c2ccccc2OC)cc1 | inconclusive: 14.1 µM [activator, single point] | – |
| CCOc1ccc(-n2c(O)c(/C=N/Nc3nc(C)cc(C)n3)c3ccccc3c2=O)cc1 | inconclusive: 5.62 µM [inhibitor, single point] | – |
| CCN(CC)C(=O)C(Sc1ccccc1)c1ccccc1 (configuration not stated) | inconclusive: 16.4 µM [inhibitor, single point] | – |
| Cc1ccc(C2CC(c3cccs3)=NN2C(=O)c2ccc(Br)o2)cc1 (configuration not stated) | inconclusive: 15.8 µM [inhibitor, single point] | – |
| CCCn1c(N)c(N(CCOC)C(=O)CCC2CCCCC2)c(=O)[nH]c1=O | inconclusive: 0.794 µM [activator, partial curve, poor fit] | – |
| COc1ccc2oc(C(=O)N3CCN(S(=O)(=O)c4ccc(F)cc4)CC3)c(C)c2c1 | inconclusive: 35.5 µM [inhibitor, single point] | – |
| Cc1ccc(C)c(N2CCN(C(=O)C3CCN(Cc4nc(-c5cccc(Cl)c5)oc4C)CC3)CC2)c1 | – | inconclusive: 13.1% [activator] [at 46.1 µM] |
| O=C1NC(=O)N(c2ccc(Cl)cc2)C(=O)/C1=C\c1ccc(Sc2nc3ccccc3[nH]2)o1 | inconclusive: 4.47 µM [inhibitor, full curve, poor fit] | – |
| Cc1sc2ncn(-n3c(C)ccc3C)c(=O)c2c1C | inconclusive: 35.5 µM [inhibitor, partial curve, poor fit] | – |
| Cc1cc(=O)[nH]c(N/N=C/c2ccc(C)o2)n1 | inactive | – |
| COc1ccc(C(=O)CSc2nnc(-c3ccccn3)n2Cc2ccco2)cc1 | inactive | – |
| COc1ccccc1/C=C/C(=O)NC(=S)NC(C)C | inconclusive: 1.26 µM [inhibitor, single point] | – |
| Cc1ccc(NC(=S)/N=C(\N)Nc2nc(C)c3cc(C)c(C)cc3n2)cc1C | inconclusive: 3.55 µM [inhibitor, partial curve, poor fit] | – |
| COc1cc(/C=C/CN2CCN(Cc3ccc(C)o3)C(CCO)C2)ccc1O (configuration not stated) | inactive | – |
| CNC(=S)N1CCc2cc(OC)c(OC)cc2C1COc1ccc(OC)cc1 (configuration not stated) | inconclusive: 7.08 µM [inhibitor, partial curve, poor fit] | – |
| O=C(O)Cn1c2c(c3ccccc31)CSc1ccc(Cl)cc1-2 | inactive | – |
| Cn1c(SCc2ccccc2)nnc1-c1ccncc1 | inactive | – |
| CN(C)CCOc1ccc2ccccc2c1 | inconclusive: 14.1 µM [activator, partial curve, poor fit] | – |
| O=C(O)CC(C(=O)N(c1ccccc1)c1ccccc1)N1CCOCC1 (configuration not stated) | inactive | – |
| CC1(C)Cc2c(c(N3CCOCC3)nc3sc4c(NN)ncnc4c23)CS1 | inconclusive: 32.6 µM [inhibitor, single point] | – |
| Cc1sc2nc(C(C)Nc3ccccc3N3CCOCC3)[nH]c(=O)c2c1C (configuration not stated) | inactive | – |
| COc1ccc(C)cc1S(=O)(=O)N(CC(=O)NCc1ccc(Cl)cc1)Cc1ccccc1 | active: 23.1 µM | – |

Among those listed so far, 3 contain a COOH group.

| Structure (SMILES) | Potency | activity change, negative = inhibition |
| --- | --- | --- |
| COc1ccc(S(=O)(=O)N(CC(=O)O)c2ccccc2)cc1 | inactive | – |
| O=C(O)Cn1c2c(c3ccccc31)CSc1ccc(Cl)cc1-2 | inactive | – |
| O=C(O)CC(C(=O)N(c1ccccc1)c1ccccc1)N1CCOCC1 (configuration not stated) | inactive | – |
